# According to PubChem BioAssay AID256 (DTP/NCI, 2004):
# The list is a part of this screen's results and no random one: it is rich in T/C values a quarter to a half above the control, in often repeated tests (any T/C) and in doses without a T/C. Further doses and runs are listed elsewhere. T/C gives the treated animals as a percentage of the vehicle group. Some entries give survivors of the animals treated and no T/C: the source files T/C as zero there, which appears to mark a toxic dose or a test without result, not a measured value. Some doses without a T/C left all or most animals alive at the check, yet need not have been tolerated: the source hardly ever lists a survival T/C far under the control, and the zero likely stands for such cases as well. Survivors were counted at the toxicity check, usually on the fifth day, unless a day is given; later deaths do not show. Schedule codes are those of the source, read here as Q, the interval in days (D) or hours (H), X, the number of doses. Some entries were tested several times; their values stand side by side, smallest first. Where survival is the endpoint, the PubChem record calls one and a half times the control and up active, and a quarter to a half above the control has no call in these data; cut-offs in other NCI protocols can differ. Some T/C values carry the count of animals alive at the toxicity check (mostly the fifth day); without a count, all were alive then.
# Test system: CD2F1 mice, L1210 leukemia ip, survival T/C
# Assay: NCI In Vivo Anticancer Drug Screen. Data for tumor model L1210 Leukemia (intraperitoneal) in CD2F1 (CDF1) mice
# Details: higher T/C = longer survival
# Protocol: The antitumor activity of compounds was measured in mice bearing transplantable tumors. Survival or tumor size were measured and the results are expressed as the measurement made in the treated group (T) divided by the measurement made in the vehicle treated control group (C). The tumor model used in this assay is L1210 Leukemia (intraperitoneal) in CD2F1 (CDF1) mice
# [1] = T/C endpoint: mean survival time, dose: 300.0 mg/kg/injection, schedule: Q01DX001 (ip), vehicle: saline
# [2] = T/C endpoint: mean survival time, dose: 400.0 mg/kg/injection, schedule: Q04DX002 (ip), vehicle: saline
# [3] = T/C endpoint: mean survival time, dose: 400.0 mg/kg/injection, schedule: Q04DX003 (ip), vehicle: saline with Tween-80
# [4] = T/C endpoint: mean survival time, dose: 100.0 mg/kg/injection, schedule: Q04DX003 (ip), vehicle: saline with Tween-80
# [5] = T/C endpoint: mean survival time, dose: 200.0 mg/kg/injection, schedule: Q04DX003 (ip), vehicle: saline with Tween-80
# [6] = T/C endpoint: mean survival time, dose: 50.0 mg/kg/injection, schedule: Q04DX002 (ip), vehicle: saline with Tween-80
# [7] = T/C endpoint: mean survival time, dose: 400.0 mg/kg/injection, schedule: Q04DX002 (ip), vehicle: saline with Tween-80
# [8] = T/C endpoint: mean survival time, dose: 100.0 mg/kg/injection, schedule: Q04DX002 (ip), vehicle: saline with Tween-80
# [9] = T/C endpoint: mean survival time, dose: 25.0 mg/kg/injection, schedule: Q01DX009 (ip), vehicle: saline with Tween-80
# [10] = T/C endpoint: mean survival time, dose: 400.0 mg/kg/injection, schedule: Q04DX003 (ip), vehicle: saline
structure (smiles),measurement,setting,value
CCOC(=O)COC(CC[P+](c1ccccc1)(c1ccccc1)c1ccccc1)(C(=O)c1ccccc1)c1ccccc1 (stereo unspecified),survivor count,"T/C endpoint: mean survival time, dose: 10.0 mg/kg/injection, schedule: Q01DX001 (ip), vehicle: saline with Tween-80",2 of 6
COC(=O)N/N=C/Cc1ccccc1,survivor count,"T/C endpoint: mean survival time, dose: 200.0 mg/kg/injection, schedule: Q01DX009 (ip), vehicle: saline with Tween-80",2 of 6
same,survivor count,"T/C endpoint: mean survival time, dose: 400.0 mg/kg/injection, schedule: Q01DX009 (ip), vehicle: saline with Tween-80",0 of 6
CN(CCN1CCCCC1)C(=O)C(O)(c1ccccc1)c1ccccc1,survivor count,[1],2 of 6
F[C](F)(F)[Hg][Br],survivor count,"T/C endpoint: mean survival time, dose: 100.0 mg/kg/injection, schedule: Q04DX002 (ip), vehicle: saline",0 of 3
same,survivor count,"T/C endpoint: mean survival time, dose: 200.0 mg/kg/injection, schedule: Q04DX002 (ip), vehicle: saline",0 of 3
same,survivor count,[2],0 of 3
N#CCCCCCCn1cnc2c(N)ncnc21,survivor count,"T/C endpoint: mean survival time, dose: 400.0 mg/kg/injection, schedule: Q01DX001 (ip), vehicle: saline with Tween-80",3 of 6
N#C[S-].N#C[S-].[Au+3].[Au+3].[CH3-].[CH3-].[CH3-].[CH3-],survivor count,[3],0 of 6
CCOC(=O)NC(NC(=O)OCC)C(Br)(Br)Br,T/C,"T/C endpoint: mean survival time, dose: 100.0 mg/kg/injection, schedule: Q01DX001 (ip), vehicle: Klucel (hydroxypropylcellulose) (HPC)",137 % of control
CC#CN(CC)CC,survivor count,[1],3 of 6
O=C1C=C(SCCO)C(=O)c2ccccc21,survivor count,"T/C endpoint: mean survival time, dose: 5.0 mg/kg/injection, schedule: Q04DX003 (ip), vehicle: saline with Tween-80",3 of 6 and 6 of 6
same,survivor count,"T/C endpoint: mean survival time, dose: 10.0 mg/kg/injection, schedule: Q04DX003 (ip), vehicle: saline with Tween-80",2 of 6
same,survivor count,"T/C endpoint: mean survival time, dose: 20.0 mg/kg/injection, schedule: Q04DX003 (ip), vehicle: saline with Tween-80",0 of 6
same,survivor count,[4],0 of 6
same,survivor count,[5],0 of 6
same,survivor count,[3],0 of 6
COc1ccc(C(=O)C(C)(C)C)cc1,survivor count,[6],3 of 3
same,survivor count,[7],3 of 3
C[N+](C)(Cc1ccccc1)C1c2ccccc2-c2ccc(Cl)cc21 (stereo unspecified),survivor count,[8],0 of 3
same,survivor count,"T/C endpoint: mean survival time, dose: 200.0 mg/kg/injection, schedule: Q04DX002 (ip), vehicle: saline with Tween-80",0 of 3
same,survivor count,[7],0 of 3
CC(C)C(=O)OC1(C(C)c2ccccc2)C(=O)NC(=O)NC1=O (stereo unspecified),survivor count,[9],3 of 6
same,survivor count,[6],0 of 3
same,survivor count,[8],0 of 3
O=c1cc[nH]c(=O)o1,T/C,"T/C endpoint: mean survival time, dose: 19.0 mg/kg/injection, schedule: Q01DX009 (ip), vehicle: water",128 % of control
same,T/C,"T/C endpoint: mean survival time, dose: 28.0 mg/kg/injection, schedule: Q01DX009 (ip), vehicle: water",128 % of control
same,survivor count,"T/C endpoint: mean survival time, dose: 63.0 mg/kg/injection, schedule: Q01DX009 (ip), vehicle: water",2 of 6
same,survivor count,[3],1 of 6
same,T/C,"T/C endpoint: median survival time, dose: 19.0 mg/kg/injection, schedule: Q01DX009 (ip), vehicle: water",136 % of control
same,T/C,"T/C endpoint: median survival time, dose: 28.0 mg/kg/injection, schedule: Q01DX009 (ip), vehicle: water",141 % of control [5 of 6 alive]
same,T/C,"T/C endpoint: median survival time, dose: 42.0 mg/kg/injection, schedule: Q01DX009 (ip), vehicle: water",137 % of control
O=c1[nH]cnc2c1ccn2C1OC(CO)C(O)C1O (stereo unspecified),survivor count,"T/C endpoint: mean survival time, dose: 25.0 mg/kg/injection, schedule: Q01DX009 (ip), vehicle: saline",3 of 6
same,T/C,"T/C endpoint: mean survival time, dose: 25.0 mg/kg/injection, schedule: Q04DX003 (ip), vehicle: saline sonified",126 % of control
same,survivor count,[4],0 of 6
same,survivor count,[5],0 of 6
same,survivor count,[3],0 of 6
COc1cc(NCc2ccc3nc(N)nc(N)c3c2C)cc(OC)c1OC (tested in a mixture with another compound),T/C,"T/C endpoint: median survival time, dose: 20.0 mg/kg/injection, schedule: Q01DX005 (ip), vehicle: water",130 % of control [5 of 6 alive]
same,T/C,"T/C endpoint: median survival time, dose: 40.0 mg/kg/injection, schedule: Q01DX005 (ip), vehicle: water",137 % of control
same,T/C,"T/C endpoint: median survival time, dose: 80.0 mg/kg/injection, schedule: Q01DX005 (ip), vehicle: water",130 % of control
same,survivor count,"T/C endpoint: median survival time, dose: 160.0 mg/kg/injection, schedule: Q01DX005 (ip), vehicle: water",4 of 6
c1cncc(-c2nnc(-c3cccnc3)o2)c1,survivor count,[6],1 of 3
same,survivor count,[7],0 of 3
Cc1nc(N)[nH]c(=O)c1[N+](=O)[O-],survivor count,"T/C endpoint: mean survival time, dose: 400.0 mg/kg/injection, schedule: Q04DX003 (ip), vehicle: other",2 of 6
c1ccc(C2CC([P+](c3ccccc3)(c3ccccc3)c3ccccc3)=NN2CC[P+](c2ccccc2)(c2ccccc2)c2ccccc2)cc1 (stereo unspecified),survivor count,"T/C endpoint: mean survival time, dose: 12.5 mg/kg/injection, schedule: Q04DX003 (ip), vehicle: saline with Tween-80",0 of 6
same,survivor count,"T/C endpoint: mean survival time, dose: 25.0 mg/kg/injection, schedule: Q04DX003 (ip), vehicle: saline with Tween-80",0 of 6
same,survivor count,"T/C endpoint: mean survival time, dose: 50.0 mg/kg/injection, schedule: Q04DX003 (ip), vehicle: saline with Tween-80",0 of 6
CCCCCCCCCCCCSC#N,survivor count,"T/C endpoint: mean survival time, dose: 400.0 mg/kg/injection, schedule: Q04DX002 (ip), vehicle: Klucel (hydroxypropylcellulose) (HPC)",2 of 3
same,survivor count,[7],3 of 3
CCCCCCCCCCCCN1C(C)=CS/C1=C\C=C\c1scc(C)[n+]1CCCCCCCCCCCC,T/C,"T/C endpoint: mean survival time, dose: 1.56 mg/kg/injection, schedule: Q01DX009 (ip), vehicle: saline with Tween-80",125 % of control
same,T/C,"T/C endpoint: mean survival time, dose: 3.12 mg/kg/injection, schedule: Q01DX009 (ip), vehicle: saline with Tween-80",141 % of control
same,survivor count,"T/C endpoint: mean survival time, dose: 6.25 mg/kg/injection, schedule: Q01DX009 (ip), vehicle: saline with Tween-80",5 of 6
same,survivor count,"T/C endpoint: mean survival time, dose: 12.5 mg/kg/injection, schedule: Q01DX009 (ip), vehicle: saline with Tween-80",5 of 6
same,survivor count,[9],0 of 6
CCC1(O)CC2CN(CCc3c([nH]c4ccccc34)C(C(=O)OC)(c3cc4c(cc3OC)N(C)C3C(O)(C(N)=O)C(O)C5(CC)C=CCN6CCC43C65)C2)C1 (stereo unspecified) (tested in a mixture with another compound),T/C,"T/C endpoint: mean survival time, dose: 0.6 mg/kg/injection, schedule: Q01DX009 (ip), vehicle: water",130 % of control [5 of 6 alive]
same,T/C,"T/C endpoint: mean survival time, dose: 0.65 mg/kg/injection, schedule: Q04DX003 (ip), vehicle: water",128 % of control
same,T/C,"T/C endpoint: mean survival time, dose: 0.86 mg/kg/injection, schedule: Q04DX003 (ip), vehicle: water",125 % of control [5 of 6 alive]
same,survivor count,"T/C endpoint: mean survival time, dose: 1.0 mg/kg/injection, schedule: Q01DX009 (ip), vehicle: water",3 of 6
same,T/C,"T/C endpoint: mean survival time, dose: 1.08 mg/kg/injection, schedule: Q04DX003 (ip), vehicle: water",140 % of control
same,T/C,"T/C endpoint: mean survival time, dose: 2.4 mg/kg/injection, schedule: Q04DX003 (ip), vehicle: water",127 % of control [5 of 6 alive]
same,T/C,"T/C endpoint: mean survival time, dose: 3.0 mg/kg/injection, schedule: Q04DX003 (ip), vehicle: water",134 % of control
CC1=C/C(O)CC(=O)Cc2nc(co2)C(=O)N2CCC=C2C(=O)OC(C(C)C)C(C)/C=C\C(=O)NC/C=C\1 (stereo unspecified),survivor count,"T/C endpoint: median survival time, dose: 400.0 mg/kg/injection, schedule: Q01DX009 (ip), vehicle: Klucel (hydroxypropylcellulose) (HPC)",5 of 6
ClC1(Cl)C2CCCCC21 (stereo unspecified),survivor count,[3],2 of 6
Cn1ncc2c(NCc3ccccc3)ncnc21,T/C,"T/C endpoint: mean survival time, dose: 75.0 mg/kg/injection, schedule: Q01DX009 (ip), vehicle: saline with Tween-80",127 % of control
same,survivor count,"T/C endpoint: mean survival time, dose: 150.0 mg/kg/injection, schedule: Q01DX009 (ip), vehicle: saline with Tween-80",4 of 6
OC(O)(C(F)(F)F)C(F)(F)F,survivor count,"T/C endpoint: mean survival time, dose: 200.0 mg/kg/injection, schedule: Q01DX005 (ip), vehicle: saline",0 of 3
same,survivor count,[2],0 of 3
C[S+](C)CCC1NC(=O)NC1=O (stereo unspecified),survivor count,[10],2 of 6
COc1ccc(NC(=O)C2C3C=CC(C3)C2C(=O)O)cc1 (stereo unspecified),survivor count,[3],6 of 6
C[n+]1ccccc1/C=N/O,survivor count,"T/C endpoint: mean survival time, dose: 200.0 mg/kg/injection, schedule: Q04DX003 (ip), vehicle: saline",0 of 6
same,survivor count,[10],0 of 6
